Test results taken from article PMC10269783.
Results are given in words; binding and its absence hold for the method and conditions named. In cells and extracts the contact can be indirect. Binding calls can cover weak binding; strength is not graded here.

The chains behind the UniProt entries cited, without tags or fusion partners. Where a name states a change or a piece, a line headed by the entry shows the natural chain unless it says otherwise.
UniProt Q8I5N7: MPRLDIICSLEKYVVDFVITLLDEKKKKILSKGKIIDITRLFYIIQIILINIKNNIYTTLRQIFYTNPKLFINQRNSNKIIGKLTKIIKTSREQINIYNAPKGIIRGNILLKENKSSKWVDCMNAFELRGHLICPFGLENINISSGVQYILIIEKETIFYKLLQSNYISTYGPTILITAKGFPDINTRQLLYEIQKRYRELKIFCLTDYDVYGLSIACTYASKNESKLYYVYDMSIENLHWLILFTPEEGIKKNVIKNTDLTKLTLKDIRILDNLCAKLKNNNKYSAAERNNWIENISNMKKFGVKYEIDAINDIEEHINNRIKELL
UniProt Q8ID53: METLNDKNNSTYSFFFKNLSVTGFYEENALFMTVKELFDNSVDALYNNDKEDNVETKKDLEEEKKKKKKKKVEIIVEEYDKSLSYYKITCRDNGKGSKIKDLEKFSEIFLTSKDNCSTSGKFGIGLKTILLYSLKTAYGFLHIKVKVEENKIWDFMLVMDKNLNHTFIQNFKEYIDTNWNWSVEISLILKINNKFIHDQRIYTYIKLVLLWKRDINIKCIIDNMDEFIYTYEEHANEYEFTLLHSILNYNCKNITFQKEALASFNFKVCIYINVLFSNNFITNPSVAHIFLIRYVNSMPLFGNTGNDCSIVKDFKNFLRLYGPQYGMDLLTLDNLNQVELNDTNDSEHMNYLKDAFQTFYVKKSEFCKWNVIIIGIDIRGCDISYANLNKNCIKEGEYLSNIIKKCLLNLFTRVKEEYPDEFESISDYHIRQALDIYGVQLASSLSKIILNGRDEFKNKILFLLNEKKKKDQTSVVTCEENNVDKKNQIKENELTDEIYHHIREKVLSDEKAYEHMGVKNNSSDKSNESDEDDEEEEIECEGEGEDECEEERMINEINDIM

Target: Plasmodium falciparum Spo11 (Plasmodium falciparum (endogenous in 3D7 parasites)) (UniProt Q8I5N7)
Test: co-IP; Pierce cross-link IP kit; anti-PfSpo11 antibody cross-linked (DSS) to protein A/G Plus agarose; lysate of synchronized late schizont stage parasites in IP lysis buffer (0.025 M Tris, 0.15 M NaCl, 0.001 M EDTA, 1% NP-40, 5% glycerol, pH 7.4), overnight; pellet probed with PfTopoVIB antibody; IgG as control

binding: binds
Substance: Plasmodium falciparum topoisomerase VIB (from UniProt Q8ID53)
